Not every detail of the peptide structures is certain; ends, links or a residue may be inferred. Peptide text beside a SMILES is read from it.
Key:
Format in all cases: in vivo, rat
blood glucose levels = experiment: Arginine-induced changes in blood glucose in rats (glucose oxidase method)
Method: (§1) Studies were made of the effects of the compound of this invention on arginine-induced changes in blood glucose, insulin and glucagon levels and the results obtained were compared with those of somatostatin.
(§2) Male SD rats weighing 300 to 500 g were anesthetized with sodium pentobarbital (60 mg/kg of body weight, by intraabdominal puncture) and polyethylene catheters were placed in their carotid artery. Saline was infused over 10 minutes, and arginine was infused at a rate of 3 g/kg/hr, for 60 minutes, using an infusion pump (at a rate of 4.5 ml/kg/hr). For 30 minutes, immediately after the start of arginine infusion, somatostatin or the compound of this invention was infused at rates of 4 μg/kg/hr, as a basal dose, 40 μg/kg/hr as 10 times as the basal dose, and 400 μg/kg/hr, as 100 times as the basal dose, respectively.
(§3) Before and 15 minutes, 30 minutes and 60 minutes after the start of arginine infusion, blood samples were taken in the presence of heparine. Blood glucose values were measured by the glucose oxidase method, and blood insulin and glucagon values were measured by the radioimmunoassay method.

blood insulin levels = experiment: Arginine-induced changes in blood insulin in rats (radioimmunoassay)
Method: as §1, §2, §3

blood glucagon levels = experiment: Arginine-induced changes in blood glucagon in rats (radioimmunoassay)
Method: as §1, §2, §3

[1] = rats, arginine 3 g/kg/hr, substance infused for 30 minutes

C[C@@H](O)[C@@H]1NC(=O)[C@H](CCCCN)NC(=O)[C@@H](Cc2c[nH]c3ccccc23)NC(=O)[C@H](Cc2ccccc2)NC(=O)[C@H](Cc2ccccc2)NC(=O)[C@H](CC(N)=O)NC(=O)[C@H](CCCCN)NC(=O)CCCCC[C@H](C(=O)O)NC(=O)[C@H](CO)NC(=O)[C@H]([C@@H](C)O)NC(=O)[C@H](Cc2ccccc2)NC1=O [the compound of this invention, Des-(Ala^1,Gly^2)-(D-Trp^8,D-Asu^3,14)-somatostatin] (HELM PEPTIDE1{K.N.F.F.[dW].K.T.F.T.S.[O=C(O)[C@@H](CCCCCC(=O)[*:3])N[*:1]]}$PEPTIDE1,PEPTIDE1,1:R1-11:R3$$$V2.0)
blood glucose level versus control (blood glucose levels; at more than the basal dose (4 μg/kg/hr), 15 minutes and 30 minutes after start of arginine infusion): lower blood glucose levels than those of the control | rise in blood glucose levels induced by arginine (blood glucose levels; [1]): inhibited the rise in blood glucose levels | effect after the suspension of infusion (blood insulin levels; 15 minutes after the suspension of infusion, conclusion on insulin and glucagon): retained its effect | effect on blood insulin level after suspension of infusion (blood insulin levels; 45 minutes after start of arginine infusion = 15 minutes after suspension of substance infusion): still exerted its effect | blood insulin level versus control (blood insulin levels; at 100 times the basal dose, 15 minutes after suspension of infusion): significantly lower levels as compared to the control | rise in blood insulin levels (insulin secretion) enhanced by arginine (blood insulin levels; [1]): inhibited | inhibition of blood insulin secretion compared with somatostatin (blood insulin levels; rats, arginine-stimulated): to a similar extent as somatostatin | duration of activity compared with somatostatin (blood insulin levels; rats, arginine-stimulated, conclusion): longer than that of somatostatin | rise in glucagon levels versus control (blood glucagon levels; at the basal dose (4 μg/kg/hr) and at 10 and 100 times the basal dose, 15 minutes and 30 minutes after start of arginine infusion): significantly inhibits the rise in glucagon levels | blood glucagon level (glucagon antibody) versus control (blood glucagon levels; at the basal dose, 45 minutes after start of arginine infusion): significantly low values of glucagon antibody | pharmacological activity relative to somatostatin (blood glucagon levels; inhibition of blood glucagon secretion, rats): more than 10 times | blood glucagon secretion enhanced by arginine (blood glucagon levels; rats, arginine 3 g/kg/hr): inhibited
